Test results as given in the supplement of paper PMC6078165.
The reference is the same well before dosing, and untreated signal decays as well.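 Fibroblast labels denote human fibroblasts, mainly primary ones from uterus (C12385, HUF), lung (H6013), bone (Hs27A), adrenal (HADF) and skin (WS1), plus mammary HMF and breast cancer-associated Hs343T. Cancer cells are basal-like or mesenchymal-like triple-negative breast cancer lines. A hit is a response shift exceeding 3x replicate standard deviation. The tissue of the other fibroblasts is not given here.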

Tested on: Hs578T
Test: relative JC-1 red fluorescence (viability) vs pre-drug, coculture with fibroblast (fraction); higher = more viable cancer cells
Experimental: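 JC-1 labelled TNBC cells cocultured 1:1 (1,500 cells each) with CellTrace Violet stained primary or stromal fibroblasts in 384-well plates in FluoroBrite medium, treated with one of 42 anticancer drugs at 0.1, 1, 10 or 100 uM. JC-1 red fluorescence (mitochondrial integrity in cancer cells only) was read by plate reader every 8 h for 72 h. Values are normalised to each well's pre-drug value. The stock of one drug was tenfold lower, so its dose labels may be too high.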

O=C(O)CCCc1ccc(N(CCCl)CCCl)cc1 [Chlorambucil]
relative JC-1 red fluorescence
Details	8 h	16 h	24 h	32 h	40 h	48 h	56 h	64 h	72 h
0.1 µM	0.891	0.81	0.7498	0.714	0.648	0.607	0.58	0.544	0.53
1 µM	0.89	0.809	0.7371	0.709	0.642	0.594	0.561	0.517	0.495

relative JC-1 red fluorescence
Details	8 h	16 h	24 h	32 h	40 h	48 h	56 h	64 h	72 h
0.1 µM, coculture fibroblast: C12385	0.801	0.738	0.711	0.621	0.567	0.549	0.524	0.52	0.527
0.1 µM, coculture fibroblast: H6013	0.84	0.813	0.804	0.795	0.7842	0.796	0.799	0.81	0.792
0.1 µM, coculture fibroblast: H6019	0.7706	0.6757	0.6648	0.576	0.548	0.538	0.518	0.515	0.5
0.1 µM, coculture fibroblast: H6076	0.914	0.853	0.791	0.761	0.719	0.716	0.7041	0.703	0.7018
0.1 µM, coculture fibroblast: H6231	0.865	0.773	0.7025	0.6563	0.585	0.5586	0.5117	0.5027	0.4915
0.1 µM, coculture fibroblast: HADF	0.889	0.8279	0.764	0.717	0.682	0.663	0.641	0.639	0.624
0.1 µM, coculture fibroblast: HCFa	0.807	0.758	0.729	0.698	0.663	0.667	0.655	0.648	0.626
0.1 µM, coculture fibroblast: HCPF	0.9076	0.813	0.7489	0.71	0.654	0.624	0.605	0.5693	0.5506
0.1 µM, coculture fibroblast: HHSteC	0.872	0.827	0.8	0.756	0.717	0.682	0.666	0.646	0.623
0.1 µM, coculture fibroblast: HMF	0.8296	0.76	0.6897	0.6611	0.611	0.584	0.553	0.534	0.532
0.1 µM, coculture fibroblast: HPFa	0.8549	0.794	0.743	0.703	0.68	0.661	0.633	0.614	0.573
0.1 µM, coculture fibroblast: HUF	0.841	0.725	0.6962	0.5925	0.5382	0.50642	0.4784	0.466	0.458
0.1 µM, coculture fibroblast: Hs27A	0.878	0.836	0.8	0.76	0.71	0.705	0.678	0.683	0.648
0.1 µM, coculture fibroblast: Hs343T	0.8939	0.776	0.69	0.651	0.568	0.524	0.482	0.464	0.458
0.1 µM, coculture fibroblast: WS1	0.796	0.729	0.723	0.6227	0.5694	0.558	0.533	0.536	0.542
1 µM, coculture fibroblast: C12385	0.83634	0.723	0.634	0.544	0.463	0.422	0.39	0.374	0.363
1 µM, coculture fibroblast: H6013	0.9139	0.863	0.82	0.785	0.75	0.739	0.711	0.706	0.675
1 µM, coculture fibroblast: H6019	0.774	0.683	0.6527	0.5572	0.515	0.49	0.451	0.43219	0.4018
1 µM, coculture fibroblast: H6076	0.911	0.831	0.785	0.766	0.729	0.732	0.715	0.712	0.71
1 µM, coculture fibroblast: H6231	0.8914	0.7961	0.712	0.6742	0.6053	0.5713	0.518	0.489	0.467
1 µM, coculture fibroblast: HADF	0.9024	0.829	0.762	0.703	0.639	0.611	0.578	0.561	0.534
1 µM, coculture fibroblast: HCFa	0.865	0.774	0.724	0.664	0.6	0.575	0.537	0.516	0.471
1 µM, coculture fibroblast: HCPF	0.9284	0.839	0.7803	0.7318	0.6685	0.6454	0.6253	0.585	0.5625
1 µM, coculture fibroblast: HHSteC	0.872	0.791	0.703	0.639	0.566	0.528	0.498	0.471	0.432
1 µM, coculture fibroblast: HMF	0.8951	0.7911	0.704	0.676	0.618	0.59	0.55	0.521	0.502
1 µM, coculture fibroblast: HPFa	0.942	0.8779	0.769	0.705	0.644	0.598	0.546	0.516	0.467
1 µM, coculture fibroblast: HUF	0.8648	0.775	0.692	0.593	0.53	0.487	0.446	0.437	0.425
1 µM, coculture fibroblast: Hs27A	0.883	0.834	0.793	0.75	0.706	0.696	0.658	0.65	0.609
1 µM, coculture fibroblast: Hs343T	0.892	0.774	0.692	0.67	0.609	0.582	0.533	0.513	0.51
1 µM, coculture fibroblast: WS1	0.802	0.6941	0.626	0.54	0.477	0.456	0.42	0.411	0.405
